Like-named read-outs stand apart in the source and are kept apart here. These are yes or no findings as the source states them, for the method shown. Binding seen in cells or lysates may run through a third protein. These calls come from enrichment with a bait or labelling near it, and not all partners need be listed.
Experiments:
[1] = biological target: T1, LRRC23 (mouse (endogenous in testis)) (UniProt O35125); experiment: affinity purification with mass spectrometry
T1 sequence: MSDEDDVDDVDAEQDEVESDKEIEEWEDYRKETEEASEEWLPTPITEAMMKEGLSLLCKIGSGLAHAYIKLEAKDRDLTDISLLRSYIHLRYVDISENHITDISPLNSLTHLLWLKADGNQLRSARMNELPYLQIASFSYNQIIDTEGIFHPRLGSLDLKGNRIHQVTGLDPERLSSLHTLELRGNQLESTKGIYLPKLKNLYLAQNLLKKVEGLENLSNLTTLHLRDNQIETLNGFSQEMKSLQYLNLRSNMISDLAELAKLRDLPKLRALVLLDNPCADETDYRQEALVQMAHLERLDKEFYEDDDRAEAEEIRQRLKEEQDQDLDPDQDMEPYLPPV

By UniProt entry, the sequences of proteins in these tests, tags left out.
UniProt Q8CEE6: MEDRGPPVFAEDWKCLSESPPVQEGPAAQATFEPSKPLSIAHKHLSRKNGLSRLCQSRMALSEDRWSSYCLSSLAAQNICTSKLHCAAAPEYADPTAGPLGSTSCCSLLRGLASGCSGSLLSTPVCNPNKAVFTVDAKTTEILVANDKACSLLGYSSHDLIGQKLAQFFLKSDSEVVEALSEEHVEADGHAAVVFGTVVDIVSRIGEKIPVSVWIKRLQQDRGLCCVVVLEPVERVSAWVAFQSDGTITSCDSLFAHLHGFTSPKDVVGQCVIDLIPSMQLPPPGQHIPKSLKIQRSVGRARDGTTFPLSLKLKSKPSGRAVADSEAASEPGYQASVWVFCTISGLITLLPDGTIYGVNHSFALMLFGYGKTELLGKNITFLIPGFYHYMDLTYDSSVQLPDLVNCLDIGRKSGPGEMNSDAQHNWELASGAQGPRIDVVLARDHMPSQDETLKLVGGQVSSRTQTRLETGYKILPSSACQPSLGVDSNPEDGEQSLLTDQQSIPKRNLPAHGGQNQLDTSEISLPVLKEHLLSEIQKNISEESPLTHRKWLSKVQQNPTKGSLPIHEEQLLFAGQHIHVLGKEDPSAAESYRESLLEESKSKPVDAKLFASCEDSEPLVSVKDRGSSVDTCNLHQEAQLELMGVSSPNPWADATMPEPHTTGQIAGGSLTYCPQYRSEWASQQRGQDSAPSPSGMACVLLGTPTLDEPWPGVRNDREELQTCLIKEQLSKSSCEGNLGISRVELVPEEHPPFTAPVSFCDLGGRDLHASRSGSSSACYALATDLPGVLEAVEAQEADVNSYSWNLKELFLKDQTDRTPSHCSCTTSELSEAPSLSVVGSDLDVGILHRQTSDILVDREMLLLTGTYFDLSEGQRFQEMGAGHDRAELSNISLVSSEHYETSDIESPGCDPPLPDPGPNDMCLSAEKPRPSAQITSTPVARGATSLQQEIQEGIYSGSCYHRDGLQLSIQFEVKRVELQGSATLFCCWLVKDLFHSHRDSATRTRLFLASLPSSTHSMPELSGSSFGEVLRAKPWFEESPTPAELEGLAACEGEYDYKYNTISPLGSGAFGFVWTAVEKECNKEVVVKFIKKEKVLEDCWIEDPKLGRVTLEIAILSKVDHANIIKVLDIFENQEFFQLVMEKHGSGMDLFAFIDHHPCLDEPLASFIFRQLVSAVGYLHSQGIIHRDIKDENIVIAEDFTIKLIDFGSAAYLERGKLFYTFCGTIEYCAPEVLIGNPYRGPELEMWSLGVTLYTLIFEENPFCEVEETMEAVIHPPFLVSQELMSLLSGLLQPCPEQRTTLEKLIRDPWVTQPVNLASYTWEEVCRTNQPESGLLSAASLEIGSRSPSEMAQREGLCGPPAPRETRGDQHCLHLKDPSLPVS

[2] = biological target: T1, LRRC23 (mouse (endogenous in testis)); experiment: affinity purification with mass spectrometry; remark: listed apart in the source

Molecule: PAS domain-containing serine/threonine-protein kinase (from UniProt Q8CEE6 1-1383)
- binding [1]: binds

B1: SDF4 (protein, UniProt Q61112 36-361)
chain: RPANHSSTRERAANREENEIMPPDHLNGVKLEMDGHLNKDFHQEVFLGKDMDGFDEDSEPRRSRRKLMVIFSKVDVNTDRRISAKEMQHWIMEKTAEHFQEAVKENKLHFRAVDPDGDGHVSWDEYKVKFLASKGHNEREIAEAIKNHEELKVDEETQEVLGNLRDRWYQADNPPADLLLTEDEFLSFLHPEHSRGMLKFMVKEIFRDLDQDGDKQLSLPEFISLPVGTVENQQGQDIDDNWVKDRKKEFEELIDSNHDGIVTMEELENYMDPMNEYNALNEAKQMIAIADENQNHHLEPEEILKYSEFFTGSKLMDYARNVHEEF
- binding [2]: binds

B2: TDRD1 (protein, UniProt Q99MV1 1-1172)
chain: MMPRNNLEASTCKMAEPFNFEKKESKPPPQDPLRSPVAQHNHPTFRLKSPENGNTKNNFLLCEQNKQYLASQEDSSVVSSNPAVVNGEVGGSKGDRKPPPTGNPVSPLSLGNSSPPNQVKTKPSSNVTPEKSKKSHKLFENALSVNNPALFNSLGPPLRSTTCHRCGLFGSLRCSQCKQTYYCSTACQRRDWSSHSTICRPVQQSLNKLEDNKSPFETKAIEVKSEVDCPPGVTKEITAGAERVMFSDLRSLQLKKTMEIKGTVTEFKHPSNFYIQLYSSEVLENMNQLSTSLKETYANVVPEDGYLPVKGEVCVAKYTVDQTWNRAIVQAVDVLQRKAHVLYIDYGNEEMIPIDSVHPLSRGLDLFPPSAIKCCVSGVIPTAGEWSEGCVAAVKALLFEQFCSVKVMDILEEEVLTCAVDLVLQSSGKQLDHVLVEMGYGVKPGEQSSTEQSVDHSALEDVGRVTVESKIVTDRNALIPKVLTLNVGDEFCGVVAHIQTPEDFFCQQLQSGHKLAELQESLSEYCGHVIPRSDFYPTIGDVCCAQFSEDDQWYRASVLAYASEESVLVGYVDYGNFEILSLKRLCPIIPKLLDLPMQALNCVLAGVKPSLGIWTPEAVCVMKEMVQNRMVTVRVVGMLGTRALVELIDKSVAPHVSASKALIDSGFAIKEKDVADKGSSMHTASVPLAIEGPAEALEWTWVEFTVDETVDVVVCMMYSPGEFYCHFLKDDALEKLDDLNQSLADYCAQKPPNGFKAEIGRPCCAFFSGDGNWYRALVKEILPSGNVKVHFVDYGNVEEVTTDQLQAILPQFLLLPFQGMQCWLVDIQPPNKHWTKEATARFQACVVGLKLQARVVEITANGVGVELTDLSTPYPKIISDVLIREQLVLRCGSPQDSLMSRPANQHKQIDSHRVQASPSAEQWKTMELPVNKTIAANVLEIISPALFYAIPSEMSENQEKLCVLAAELLEHCNAQKGQPAYRPRTGDACCAKYTNDDFWYRAIVLETSESDVKVLYADYGNIETLPLSRVQPIPASHLELPFQIIRCSLEGPMELNGSCSQLVMELLRNAMLNQSVVLSVKAISKNVHAVSVEKCSENGMINIAENLVMCGLAENLTSKRKSASTKEIPHSRDCCCTELQKQIEKHEQILLFLLNNPTNQSKFTEMKKLLRS
- binding [2]: binds
